Reference: PubChem BioAssay AID1259425 (University of Nebraska Medical Center, 2018)

- Purpose: 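Find knockdowns that reproduce the gene expression pattern seen when KSR1 is lost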 (primary screen)
- Cells: HCT116 human colon cancer cells
- Reagent: siRNA pool against human genes, 50 nM siRNA
- Measurement: 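mRNA of six signature genes measured together by branched-DNA assay after 50 nM siRNA pool, blank removed, divided by geometric mean of two housekeeping genes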
- Scale: BNIP3L mRNA: higher = more BNIP3L transcript after knockdown; NDRG1 mRNA: higher = more NDRG1 transcript after knockdown
The deposit covers about 14,000 reagents; shown is a random part of them. Not all columns of the deposit are shown. The record does not give: the time to read-out.

MCTP1 (GeneID 79772)
- BNIP3L mRNA, set 1: 0.0787
- NDRG1 mRNA, set 1: 0.26

TIGAR (GeneID 57103)
- BNIP3L mRNA, set 1: 0.0741
- NDRG1 mRNA, set 1: 0.199

CD93 (GeneID 22918)
- BNIP3L mRNA, set 1: 0.0529
- NDRG1 mRNA, set 1: 0.0599

RASGRF2 (GeneID 5924)
- BNIP3L mRNA, set 1: 0.0791
- NDRG1 mRNA, set 1: 0.137

Continued, starting with the last 2 of the part before.
CD93 (GeneID 22918)
- BNIP3L mRNA, set 1: 0.0529
- NDRG1 mRNA, set 1: 0.0599

RASGRF2 (GeneID 5924)
- BNIP3L mRNA, set 1: 0.0791
- NDRG1 mRNA, set 1: 0.137

MAFF (GeneID 23764)
- BNIP3L mRNA, set 1: 0.132
- NDRG1 mRNA, set 1: 0.142

CLEC4M (GeneID 10332)
- BNIP3L mRNA, set 1: 0.0435
- NDRG1 mRNA, set 1: 0.173

SLC1A4 (GeneID 6509)
- BNIP3L mRNA, set 1: 0.141
- NDRG1 mRNA, set 1: 0.343

IFT81 (GeneID 28981)
- BNIP3L mRNA, set 1: 0.114
- NDRG1 mRNA, set 1: 0.323

RIGI (GeneID 23586)
- BNIP3L mRNA, set 1: 0.0876
- NDRG1 mRNA, set 1: 0.144

BRPF1 (GeneID 7862)
- BNIP3L mRNA, set 1: 0.0655
- NDRG1 mRNA, set 1: 0.198

ZNRF1 (GeneID 84937)
- BNIP3L mRNA, set 1: 0.174
- NDRG1 mRNA, set 1: 0.303

NDUFA8 (GeneID 4702)
- BNIP3L mRNA, set 1: 0.142
- NDRG1 mRNA, set 1: 0.558
